From US9637491B2, “Pyrazolo[4,3-D]pyrimidines as kinase inhibitors” (Origenis GmbH, priority 2012, dated 2017)
Some of these results come from one statement about several compounds together.

Sequences of proteins named here, by UniProt entry; tags and fusion partners are left off. A change or cut given only in a name is not applied to a line headed by its entry.
UniProt Q5S007: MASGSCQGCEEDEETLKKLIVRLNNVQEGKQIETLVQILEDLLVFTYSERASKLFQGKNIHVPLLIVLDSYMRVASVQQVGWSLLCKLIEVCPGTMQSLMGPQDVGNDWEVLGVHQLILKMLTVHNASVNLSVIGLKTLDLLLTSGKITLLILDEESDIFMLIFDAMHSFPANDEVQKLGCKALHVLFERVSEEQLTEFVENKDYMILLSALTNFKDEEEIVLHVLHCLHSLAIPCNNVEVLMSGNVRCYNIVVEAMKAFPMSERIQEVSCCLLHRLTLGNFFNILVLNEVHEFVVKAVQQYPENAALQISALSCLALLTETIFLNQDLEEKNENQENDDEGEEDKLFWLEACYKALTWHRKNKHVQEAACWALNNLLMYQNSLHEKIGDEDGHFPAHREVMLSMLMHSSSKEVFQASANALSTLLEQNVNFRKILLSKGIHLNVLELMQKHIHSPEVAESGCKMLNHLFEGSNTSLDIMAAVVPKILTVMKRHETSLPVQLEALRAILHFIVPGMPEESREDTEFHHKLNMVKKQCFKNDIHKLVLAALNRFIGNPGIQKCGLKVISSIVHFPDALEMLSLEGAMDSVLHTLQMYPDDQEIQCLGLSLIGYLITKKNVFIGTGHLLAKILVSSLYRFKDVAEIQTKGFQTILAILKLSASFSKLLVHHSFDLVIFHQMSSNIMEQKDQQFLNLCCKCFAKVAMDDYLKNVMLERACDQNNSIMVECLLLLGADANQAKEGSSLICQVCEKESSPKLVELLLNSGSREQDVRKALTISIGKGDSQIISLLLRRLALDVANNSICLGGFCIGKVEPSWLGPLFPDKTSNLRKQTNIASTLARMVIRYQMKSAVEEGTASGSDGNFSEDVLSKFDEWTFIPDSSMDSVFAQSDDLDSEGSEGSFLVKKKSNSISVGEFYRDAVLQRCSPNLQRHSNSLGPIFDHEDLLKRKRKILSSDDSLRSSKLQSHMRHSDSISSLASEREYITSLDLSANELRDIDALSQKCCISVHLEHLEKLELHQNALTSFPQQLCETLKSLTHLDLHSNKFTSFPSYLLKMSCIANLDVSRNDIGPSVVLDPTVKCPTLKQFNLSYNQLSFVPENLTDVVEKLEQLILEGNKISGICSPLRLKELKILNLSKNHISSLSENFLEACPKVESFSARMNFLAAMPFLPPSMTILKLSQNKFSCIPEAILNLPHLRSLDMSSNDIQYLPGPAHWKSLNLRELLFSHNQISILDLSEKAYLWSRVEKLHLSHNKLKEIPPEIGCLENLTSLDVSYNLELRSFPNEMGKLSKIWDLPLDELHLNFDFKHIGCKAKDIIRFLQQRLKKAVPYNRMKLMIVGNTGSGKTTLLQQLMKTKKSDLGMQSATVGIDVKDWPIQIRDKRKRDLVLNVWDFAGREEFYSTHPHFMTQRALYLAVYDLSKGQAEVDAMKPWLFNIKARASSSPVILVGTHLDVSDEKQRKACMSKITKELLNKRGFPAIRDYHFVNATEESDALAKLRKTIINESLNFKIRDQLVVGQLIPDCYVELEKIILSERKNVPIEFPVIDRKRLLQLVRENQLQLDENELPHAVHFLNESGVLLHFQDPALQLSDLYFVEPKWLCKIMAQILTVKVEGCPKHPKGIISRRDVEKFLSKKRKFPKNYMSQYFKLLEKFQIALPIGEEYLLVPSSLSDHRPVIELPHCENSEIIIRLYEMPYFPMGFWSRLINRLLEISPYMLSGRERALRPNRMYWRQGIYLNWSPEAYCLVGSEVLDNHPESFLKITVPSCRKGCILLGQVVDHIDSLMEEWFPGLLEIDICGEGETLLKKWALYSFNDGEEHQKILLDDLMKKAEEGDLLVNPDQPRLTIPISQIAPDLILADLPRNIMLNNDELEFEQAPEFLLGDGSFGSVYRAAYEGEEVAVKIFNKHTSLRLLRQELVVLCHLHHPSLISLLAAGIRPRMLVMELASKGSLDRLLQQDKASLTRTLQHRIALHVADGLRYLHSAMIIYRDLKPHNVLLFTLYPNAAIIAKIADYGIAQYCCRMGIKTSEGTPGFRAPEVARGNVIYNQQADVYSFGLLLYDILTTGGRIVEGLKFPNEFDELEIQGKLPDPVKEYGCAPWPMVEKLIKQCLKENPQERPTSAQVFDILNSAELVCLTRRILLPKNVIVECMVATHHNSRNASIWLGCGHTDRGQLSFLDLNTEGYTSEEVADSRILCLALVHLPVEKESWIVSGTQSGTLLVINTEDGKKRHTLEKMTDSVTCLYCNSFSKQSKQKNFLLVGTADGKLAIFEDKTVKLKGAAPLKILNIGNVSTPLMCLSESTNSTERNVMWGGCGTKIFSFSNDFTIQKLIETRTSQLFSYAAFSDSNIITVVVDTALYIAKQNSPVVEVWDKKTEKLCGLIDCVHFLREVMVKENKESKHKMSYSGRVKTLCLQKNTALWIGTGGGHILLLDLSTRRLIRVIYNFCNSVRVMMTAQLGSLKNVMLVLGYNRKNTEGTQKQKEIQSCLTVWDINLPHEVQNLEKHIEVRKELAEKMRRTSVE

target: T1, LRRK2 (Homo sapiens, UniProt Q5S007); experiment: LRRK2 - LRRK2 G2019S assay (LanthaScreen Eu Kinase Binding Assay); conditions: LRRK2 Activities; 5 nM kinase, 10 nM tracer 236, 1 h at RT
T1 construct: fused on or other part: GST tag, inferred from the Eu-anti-GST antibody used for detection

IC50, < 10 nM:
CC(C)n1ncc(Nc2nc(C3CC3)nc3cn[nH]c23)c1Cl [Example 297, N-(5-chloro-1-isopropyl-1H-pyrazol-4-yl)-5-cyclopropyl-1H-pyrazolo[4,3-d]pyrimidin-7-amine]
CC(C)n1ncc(Nc2nc(C3CCC3)nc3cn[nH]c23)c1Cl [Example 312, N-(5-chloro-1-isopropyl-1H-pyrazol-4-yl)-5-cyclobutyl-1H-pyrazolo[4,3-d]pyrimidin-7-amine]
Cc1c(Nc2nc(C3CCC3)nc3cn[nH]c23)cnn1C(C)C [Example 325, 5-cyclobutyl-N-(1-isopropyl-5-methyl-1H-pyrazol-4-yl)-1H-pyrazolo[4,3-d]pyrimidin-7-amine]
CC(C)n1ncc(Nc2nc(-c3ccco3)nc3cn[nH]c23)c1Cl [Example 347, N-(5-chloro-1-isopropyl-1H-pyrazol-4-yl)-5-(furan-2-yl)-1H-pyrazolo[4,3-d]pyrimidin-7-amine]
FCCn1cc(Nc2nc(-c3ccoc3)nc3cn[nH]c23)cn1 [Example 361, N-(1-(2-fluoroethyl)-1H-pyrazol-4-yl)-5-(furan-3-yl)-1H-pyrazolo[4,3-d]pyrimidin-7-amine]
FCCn1cc(Nc2nc(C3CC3)nc3cn[nH]c23)cn1 [Example 362, 5-cyclopropyl-N-(1-(2-fluoroethyl)-1H-pyrazol-4-yl)-1H-pyrazolo[4,3-d]pyrimidin-7-amine]
FCCn1cc(Nc2nc(C3CCC3)nc3cn[nH]c23)cn1 [Example 363, 5-cyclobutyl-N-(1-(2-fluoroethyl)-1H-pyrazol-4-yl)-1H-pyrazolo[4,3-d]pyrimidin-7-amine]
FCCn1cc(Nc2nc(-c3ccco3)nc3cn[nH]c23)cn1 [Example 367, N-(1-(2-fluoroethyl)-1H-pyrazol-4-yl)-5-(furan-2-yl)-1H-pyrazolo[4,3-d]pyrimidin-7-amine]
CC(C)n1ncc(Nc2nc(-c3ccoc3)nc3cn[nH]c23)c1C#N [Example 395, 4-((5-(furan-3-yl)-1H-pyrazolo[4,3-d]pyrimidin-7-yl)amino)-1-isopropyl-1H-pyrazole-5-carbonitrile]
c1ccc2sc(-c3nc(Nc4cnn(C5CC5)c4)c4[nH]ncc4n3)nc2c1 [Example 410, 5-(benzo[d]thiazol-2-yl)-N-(1-cyclopropyl-1H-pyrazol-4-yl)-1H-pyrazolo[4,3-d]pyrimidin-7-amine]
c1ccc2sc(-c3nc(Nc4cnn(C5CCOCC5)c4)c4[nH]ncc4n3)nc2c1 [Example 413, 5-(benzo[d]thiazol-2-yl)-N-(1-(tetrahydro-2H-pyran-4-yl)-1H-pyrazol-4-yl)-1H-pyrazolo[4,3-d]pyrimidin-7-amine]
c1nn(C2CCCOC2)cc1Nc1nc(-c2ccc3cn[nH]c3c2)nc2cn[nH]c12 (stereo not drawn) [Example 505, 5-(1H-indazol-6-yl)-N-(1-(tetrahydro-2H-pyran-3-yl)-1H-pyrazol-4-yl)-1H-pyrazolo[4,3-d]pyrimidin-7-amine]
O=C1COc2ccc(Nc3nc(-c4ccc5cn[nH]c5c4)nc4cn[nH]c34)cc2N1 [Example 519, 6-((5-(1H-indazol-6-yl)-1H-pyrazolo[4,3-d]pyrimidin-7-yl)amino)-2H-benzo[b][1,4]oxazin-3(4H)-one]
NS(=O)(=O)c1cccc(-c2nc(Nc3ccc4c(c3)NC(=O)CCC4)c3[nH]ncc3n2)c1 [Example 525, 3-(7-((2-oxo-2,3,4,5-tetrahydro-1H-benzo[b]azepin-8-yl)amino)-1H-pyrazolo[4,3-d]pyrimidin-5-yl)benzenesulfonamide]
CS(=O)(=O)c1ccccc1-c1nc(Nc2ccc(N3CCOCC3)cc2)c2[nH]ncc2n1 [Example 527, 5-(2-(methylsulfonyl)phenyl)-N-(4-morpholinophenyl)-1H-pyrazolo[4,3-d]pyrimidin-7-amine]
